{"source": "patent US7446102B2", "about": "(priority 2004, dated 2008)", "assay": "general procedure: solution-phase peptide synthesis; EDC/HOBt; HATU/diisopropylethylamine", "settings": "late stage modification step", "data": [{"substance": "(8S,11S,14S)-14-Amino-N-((1S,3R)-4-amino-1-{[(2-aminoethyl)amino]carbonyl}-3-hydroxybutyl)-11-[3-aminopropyl]-5,17-dihydroxy-10,13-dioxo-9,12-diazatricyclo[14.3.1.1^2,6]henicosa-1(20),2(21),3,5,16,18-hexaene-8-carboxamide tetrahydrochloride", "values": [{"measurement": "step yield", "value": 59, "unit": "%"}]}, {"substance": "(8S,11S,14S)-14-Amino-N-{1-(2-aminoethyl)-3-[(2-aminoethyl)amino]-3-oxopropyl}-11-(3-aminopropyl)-5,17-dihydroxy-10,13-dioxo-9,12-diazatricyclo[14.3.1.1^2,6]henicosa-1(20),2(21),3,5,16,18-hexaene-8-carboxamide tetrahydrochloride", "values": [{"measurement": "step yield", "setting": "of theory", "value": "58% of theory"}]}, {"substance": "N^2-{[(8S,11S,14S)-14-[(tert-Butoxycarbonyl)amino]-11-{3-[(tert-butoxycarbonyl)amino]propyl}-5,17-dihydroxy-10,13-dioxo-9,12-diazatricyclo[14.3.1.1^2,6]henicosa-1(20),2(21),3,5,16,18-hexaen-8-yl]carbonyl}-L-ornithyl-N-(2-aminoethyl)-L-ornithinamide tris(hydroacetate)", "values": [{"measurement": "step yield", "setting": "tris(hydroacetate)", "value": "41% of theory"}]}, {"substance": "rel-(8S,11S,14S)-14-Amino-11-(3-aminopropyl)-5,17-dihydroxy-N-[2-hydroxy-3-(L-ornithylamino)propyl]-10,13-dioxo-9,12-diazatricyclo[14.3.1.1^2,6]henicosa-1(20),2(21),3,5,16,18-hexaene-8-carboxamide tetrahydrotrifluoroacetate", "values": [{"measurement": "step yield", "setting": "of theory, tetra(hydrotrifluoroacetate)", "value": "22% of theory"}]}]}
